Data source: PubChem BioAssay AID686938 (Drosophila RNAi Screening Center, 2013)
The deposit covers about 23,000 reagents; shown is an unselected part of those with a known target gene and a result. In the full data, 75 (0.33%) are marked active. 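Raw plate signals without normalisation; calls rest on plate z-scores that were not deposited; ratio present for only 364 wells.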 A plus sign joins genes that one reagent is predicted to hit. The record does not give: the dose of the treatment.

Assay: 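Knock-downs reducing store-operated calcium influx in Drosophila cells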 (primary screen)
System: Drosophila S2R+ cells
Knock-down reagent: long dsRNA against Drosophila genes, about 0.25 µg dsRNA per well, roughly 10,000 cells
Time to read-out: 5 days of knock-down before the calcium assay
Conditions: thapsigargin (SERCA pump blocker) to empty calcium stores; entry signal taken 4 min after adding it
Measurement: 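Per-well fluo-4 fluorescence in two replicates, unnormalised, measured in resting cells and 4 min after store depletion by the SERCA blocker thapsigargin; ratio of the two present in few wells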
Direction: calcium entry signal: higher = stronger calcium signal after store depletion; entry to resting ratio: higher = more calcium entry relative to resting level; resting calcium signal: higher = higher resting calcium signal
Hit rule: 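Hit if the duplicate-averaged plate z-score for entry over resting signal is under −3; wells with weak total dye signal (Fmax z < −2) or more than 5 off-targets removed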
Meaning of the calls: active = strongly reduced calcium entry; inactive = no strong reduction

| calcium entry signal, replicate 1 (fluorescence units) | calcium entry signal, replicate 2 (fluorescence units) | entry to resting ratio | resting calcium signal, replicate 1 (fluorescence units) | resting calcium signal, replicate 2 (fluorescence units) | call | predicted target | dsRNA |
| --- | --- | --- | --- | --- | --- | --- | --- |
| 3.74e7 | 3.63e7 | – | 1.71e7 | 1.70e7 | inactive | CG32107 | DRSC09221 |
| 3.36e7 | 3.17e7 | – | 1.54e7 | 1.44e7 | inactive | CG11892 | DRSC14428 |
| 2.38e7 | 4.16e7 | – | 1.20e7 | 1.81e7 | inactive | Jon65Aiv | DRSC10644 |
| 3.96e7 | 5.71e7 | – | 1.91e7 | 2.29e7 | inactive | Eig71Ek | DRSC11158 |
| 3.25e7 | 4.79e7 | – | 1.60e7 | 1.98e7 | inactive | PGRP-LD + Cralbp + Pmi | DRSC09743 |
| 1.79e7 | 2.13e7 | – | 1.14e7 | 1.30e7 | inactive | E23 | DRSC00425 |
| 2.41e7 | 2.84e7 | – | 1.22e7 | 1.34e7 | inactive | E23 | DRSC00593 |
| 3.47e7 | 4.46e7 | – | 1.75e7 | 1.98e7 | inactive | s-cup | DRSC06277 |
| 3.21e7 | 3.28e7 | – | 1.66e7 | 1.62e7 | inactive | s-cup | DRSC06278 |
| 3.19e7 | 4.04e7 | – | 1.65e7 | 1.89e7 | inactive | PIG-T | DRSC17774 |
| 4.00e7 | 3.14e7 | – | 2.21e7 | 1.56e7 | inactive | Sys1 | DRSC14372 |
| 2.09e7 | 4.11e7 | – | 1.19e7 | 1.74e7 | inactive | CG43123 | DRSC05049 |
| 3.18e7 | 2.40e7 | – | 1.52e7 | 1.35e7 | inactive | Npc2c | DRSC15523 |
| 3.90e7 | 3.06e7 | – | 1.77e7 | 1.60e7 | inactive | CG5089 | DRSC06914 |
| 4.55e7 | 2.90e7 | – | 2.06e7 | 1.40e7 | inactive | CG5435 | DRSC02860 |
| 3.71e7 | 3.61e7 | – | 1.78e7 | 1.91e7 | inactive | grh | DRSC05680 |
| 4.74e7 | 3.79e7 | – | 2.18e7 | 1.98e7 | inactive | grh | DRSC05683 |
| 3.15e7 | 3.13e7 | – | 1.41e7 | 1.57e7 | inactive | grh | DRSC07624 |
| 4.20e7 | 4.02e7 | – | 1.75e7 | 1.91e7 | inactive | grh | DRSC07625 |
| 3.52e7 | 5.58e7 | – | 2.09e7 | 2.83e7 | inactive | lncRNA:yar | DRSC17679 |
| 3.77e7 | 3.03e7 | – | 1.98e7 | 1.56e7 | inactive | lncRNA:yar | DRSC21708 |
| 2.12e7 | 3.92e7 | – | 1.15e7 | 1.78e7 | inactive | CG12730 | DRSC17885 |
| 1.77e7 | 1.83e7 | – | 1.23e7 | 1.13e7 | active | Sf3a1 | DRSC15166 |
| 4.72e7 | 4.81e7 | – | 6.20e7 | 2.27e7 | inactive | Synd | DRSC15116 |
| 3.84e7 | 2.93e7 | – | 2.40e7 | 1.54e7 | inactive | CG31988 | DRSC22491 |
| 2.77e7 | 5.81e7 | – | 1.18e7 | 2.66e7 | inactive | bbc | DRSC06958 |
| 2.91e7 | 3.87e7 | – | 1.46e7 | 1.90e7 | inactive | bbc | DRSC22309 |
| 2.68e7 | 3.13e7 | – | 1.21e7 | 1.36e7 | inactive | CG1572 | DRSC19686 |
| 2.53e7 | 3.87e7 | – | 1.25e7 | 4.91e7 | inactive | Jig | DRSC14974 |
| 3.85e7 | 6.77e7 | – | 2.01e7 | 2.68e7 | inactive | PGRP-SB1 | DRSC11090 |
| 3.69e7 | 2.51e7 | – | 1.89e7 | 1.36e7 | inactive | Rrp5 | DRSC15862 |

Records above marked active (1):
| calcium entry signal, replicate 1 (fluorescence units) | calcium entry signal, replicate 2 (fluorescence units) | entry to resting ratio | resting calcium signal, replicate 1 (fluorescence units) | resting calcium signal, replicate 2 (fluorescence units) | call | predicted target | dsRNA |
| --- | --- | --- | --- | --- | --- | --- | --- |
| 1.77e7 | 1.83e7 | – | 1.23e7 | 1.13e7 | active | Sf3a1 | DRSC15166 |

Further entries follow.
| calcium entry signal, replicate 1 (fluorescence units) | calcium entry signal, replicate 2 (fluorescence units) | entry to resting ratio | resting calcium signal, replicate 1 (fluorescence units) | resting calcium signal, replicate 2 (fluorescence units) | call | predicted target | dsRNA |
| --- | --- | --- | --- | --- | --- | --- | --- |
| 3.86e7 | – | – | 1.98e7 | – | inactive | hoe1 | DRSC00265 |
| 3.33e7 | 3.30e7 | – | 1.57e7 | 1.58e7 | inactive | hoe1 | DRSC00333 |
| 3.39e7 | 4.14e7 | – | 1.73e7 | 1.95e7 | inactive | hoe1 | DRSC00353 |
| 2.95e7 | 4.06e7 | – | 1.66e7 | 1.95e7 | inactive | Cp36 | DRSC18452 |
| 3.02e7 | 2.99e7 | – | 1.41e7 | 1.37e7 | inactive | NetB | DRSC20262 |
| 2.36e7 | 2.92e7 | – | 1.17e7 | 1.33e7 | inactive | CG4716 | DRSC06884 |
| 3.99e7 | 2.83e7 | – | 1.99e7 | 1.46e7 | inactive | mod(mdg4) + pre-mod(mdg4)-U | DRSC13476 |
| 3.54e7 | 6.32e7 | – | 1.77e7 | 8.44e7 | inactive | beat-IIa | DRSC14813 |
| 3.80e7 | 6.79e7 | – | 1.87e7 | 8.50e7 | inactive | beat-IIa | DRSC14814 |
| 3.30e7 | 4.14e7 | – | 1.66e7 | 1.85e7 | inactive | CG2076 | DRSC19832 |
| 2.74e7 | 4.01e7 | – | 1.38e7 | 1.73e7 | inactive | CG14234 | DRSC19317 |
| 4.00e7 | 3.51e7 | – | 1.86e7 | 1.44e7 | inactive | CG14234 | DRSC19589 |
| 2.41e7 | 3.36e7 | – | 1.16e7 | 1.63e7 | inactive | qsm | DRSC05896 |
| 1.74e7 | 3.17e7 | – | 1.01e7 | 1.45e7 | inactive | qsm | DRSC06393 |
| 2.27e7 | 2.15e7 | – | 1.21e7 | 1.12e7 | inactive | Lcp65Ag3 | DRSC10345 |
| 4.39e7 | 4.67e7 | – | 2.16e7 | 1.93e7 | inactive | AP-2alpha | DRSC00800 |
| 3.65e7 | 4.19e7 | – | 1.95e7 | 2.02e7 | inactive | CG5447 | DRSC15801 |
| 3.50e7 | 3.89e7 | – | 1.68e7 | 1.90e7 | inactive | alph | DRSC15398 |
| 2.50e7 | 3.29e7 | – | 1.15e7 | 1.55e7 | inactive | Arfip | DRSC15179 |
| 6.03e7 | 6.56e7 | 2.1 | 2.86e7 | 2.71e7 | inactive | usp | DRSC18847 |
| 4.26e7 | 4.29e7 | – | 1.94e7 | 1.98e7 | inactive | bt | DRSC17129 |
| 3.77e7 | 4.13e7 | – | 1.83e7 | 1.95e7 | inactive | bt | DRSC17171 |
| 3.18e7 | 3.78e7 | – | 1.66e7 | 1.76e7 | inactive | Ets96B | DRSC16127 |
| 2.59e7 | 4.34e7 | – | 1.33e7 | 1.93e7 | inactive | jef | DRSC06198 |
| 3.25e7 | 4.29e7 | – | 1.62e7 | 1.75e7 | inactive | Aasdh | DRSC03467 |
| 3.53e7 | 4.56e7 | – | 1.77e7 | 2.07e7 | inactive | CG46298 | DRSC06222 |
| 4.52e7 | 5.29e7 | – | 2.19e7 | 2.27e7 | inactive | Vha100-5 | DRSC02175 |
